Values quoted from earlier work in patent publication US8158147B2, “Modified release formulations of at least one form of tramadol” (priority 2002, dated 2012).
Like-named read-outs stand apart in the source and are kept apart here. At least one structure is not confirmed: it was looked up by name or label, or the drawing left a doubt.

Tested on: osteoarthritis

Structure (SMILES): Cc1ccc(-c2cc(C(F)(F)F)nn2-c2ccc(S(N)(=O)=O)cc2)cc1 [celecoxib, Celecoxib]
- LS mean difference in pain VAS change from baseline vs placebo (6 weeks, Celecoxib 100 mg BID, Study No. 040): 13.9 mm
- LS mean difference in pain VAS change from baseline vs placebo (6 weeks, Celecoxib 100 mg BID, Study No. 087 (first value)): 6.2 mm
- LS mean difference in pain VAS change from baseline vs placebo (6 weeks, Celecoxib 100 mg BID, Study No. 087 (second value)): 8.5 mm
- LS mean difference in pain VAS change from baseline vs placebo (6 weeks, Celecoxib 200 mg QD, Study No. 040): 13.1 mm
- LS mean difference in pain VAS change from baseline vs placebo (12 weeks, Study No. 020, celecoxib 100 mg BID, Naproxen 500 mg BID): 8.0 mm
- LS mean difference in pain VAS change from baseline vs placebo (12 weeks, Study No. 054, celecoxib 100 mg BID, Naproxen 500 mg BID): 12.2 mm
